In PMC9918186, “Interaction of Positively Charged Oligopeptides with Blood Plasma Proteins” (International Journal of Molecular Sciences, 2023):

How the values were obtained:
[1] = system: γ-globulin fraction (GGF); assay: Fluorescence quenching of GGF by peptides L1–3; format: binding
Description: Fluorescence spectroscopy was carried out to characterize the mechanism of the interaction between three plasma proteins, BSA, AAG, and GGF, with the studied peptides. The fluorescence spectra of protein were collected during titration of L1–L3. The excitation wavelength was set at λ = 280 nm (both Trp and Tyr residues were excited).
To confirm this, the fluorescence data were further analyzed by the Stern–Volmer Equation (1) after correction due to the infer filter effect (2):(1) F0/F=1+kqτ[Q]=1+KSV (2) Fcorr=Fobs10^(Aex+Aem)/2 where F0 and F are the fluorescence intensities (after correction) of the protein and protein in the presence of L1–3, respectively, kq is the quenching rate constant, τ0 the average lifetime, [Q] is the L1–3 concentration, Ksv is the Stern–Volmer constant, and Fcorr, and Fobs are the corrected and observed fluorescence intensities, respectively. Aex and Aem are the absorbance values at excitation and emission wavelengths, respectively. A linear regression fit was used to calculate the value of the Stern–Volmer constant (Ksv). Then, assuming the average lifetime of the fluorophore in the excited state for a biomolecule as 10^−8 s, the quenching rate constant (kq) was computed. For dynamic quenching, the maximum scatters collision quenching rate constant for different quenchers with the biopolymers was reported to be 2 × 10^10 dm^3mol^−1s^−1 [55, 56]. […] Collisional quenching occurs when the excited-state fluorophore is deactivated by contact with some other molecule in solution (by collisions). […] This is a dynamic mechanism of quenching. The quenching constant characterizes the quenching mechanism. The maximum value for collisional quenching is 2 × 10^10 dm^3mol^−1s^−1. […] For further confirmation, measurements were made at, in addition to 297 K, temperatures 303 and 308 K. Experimental data points were fitted and analyzed using Equation (1).
Both for the complexes with BSA and with GGF, the binding constant (Kb) and the binding stoichiometry (n) were calculated. […] The values of Kb and n were calculated from the slope and the intercept of the log [(F0 − F)/F] versus log [Q] plot (Figure 2).
The forces involved in the interaction can be identified by measurement at different temperatures and then by thermodynamic analysis. The signs of the thermodynamic parameters identify the type of interactions. The enthalpy change (ΔH°), the entropic change (ΔS°), and the free energy change (ΔG°) were calculated from Equations (4) and (5):(4) […]=−ΔH^°/RT+ΔS^°/R (5) ΔG^°=ΔH^°−TΔS^°=−RTlnKb where Kb is the binding constant and R is the universal gas constant. To determine the thermodynamic parameters, the van’t Hoff plot was first conducted, i.e., the temperature dependence of the binding constant, according to Equation (4). The Kb values at the three temperatures were fitted by the linear regression method. The values of ΔH and ΔS were calculated from the slope and intercept at the fitted line. Next, the free energy change (ΔG°) was obtained from Equation (5).

GGF [2] = assay: ATR-FTIR Amide I deconvolution, secondary structure of GGF with peptide; details: for Random Coil of GGF / β-Anti of GGF / β-Sheet of GGF / β-Turn of GGF / α-Helix of GGF: ATR-FTIR Amide I
GGF [3] = assay: CD spectroscopy, secondary structure of GGF with peptide
[4] = van't Hoff plot of Kb at 297, 303, 308 K
[5] = GGF:peptide 1:0.25, pH 7.4 phosphate buffer
[6] = GGF:peptide 1:0.5, pH 7.4 phosphate buffer
[7] = GGF:peptide 1:0.75, pH 7.4 phosphate buffer
[8] = GGF:peptide 1:1, pH 7.4 phosphate buffer
[9] = GGF:peptide 1:1.5, pH 7.4 phosphate buffer

## Lys-Dab-Dab-Gly-Orn-Pro-His-Lys-Arg-Lys-Dbt [L1]
[1]; 297 K
  number of binding sites n: 1.06 ± 0.02
[1]; 303 K
  number of binding sites n: 1.03 ± 0.06
[1]; 308 K
  number of binding sites n: 0.97 ± 0.04
[1]; from ΔH° − TΔS°
  ΔG°: −29 ± 1 kJmol^−1
[1]; [4]
  ΔH°: −94 ± 2 kJmol^−1
  ΔS°: −220 ± 7 Jmol^−1K^−1
GGF [2]; GGF/peptide 1:0.5
  Random Coil of GGF: 39.82%
  β-Anti of GGF: 3.85%
  β-Sheet of GGF: 34.54%
  β-Turn of GGF: 10.12%
GGF [2]; GGF/peptide 1:0.5, GGF 6.5 × 10^−4 M, room temperature
  α-Helix of GGF: 11.67%
GGF [2]; GGF/peptide 1:1.0
  Random Coil of GGF: 39.71%
  α-Helix of GGF: 9.41%
  β-Anti of GGF: 4.13%
  β-Sheet of GGF: 35.36%
  β-Turn of GGF: 11.38%
GGF [2]; GGF/peptide 1:1.5
  Random Coil of GGF: 40.67%
  α-Helix of GGF: 9.37%
  β-Anti of GGF: 4.12%
  β-Sheet of GGF: 35.72%
  β-Turn of GGF: 10.12%
GGF [2]; ATR-FTIR, after peptide addition
  differences in the secondary structure of GGF: 22.98%
GGF [2]; ATR-FTIR, versus free GGF
  fall of α-helix of GGF: about 4%
  rise of random coil of GGF: ~ 22.9%
GGF [3]; [5]
  % Other of GGF: 40.9%
  % β-Sheet of GGF: 38.0%
  % β-Turn of GGF: 13.2%
GGF [3]; GGF:peptide 1:0.25, pH 7.4 phosphate buffer, room temperature, GGF 1 µM
  % α-Helix of GGF: 7.9%
GGF [3]; [6]
  % Other of GGF: 40.9%
  % α-Helix of GGF: 7.9%
  % β-Sheet of GGF: 38.0%
  % β-Turn of GGF: 13.2%
GGF [3]; [7]
  % Other of GGF: 41.3%
  % α-Helix of GGF: 7.6%
  % β-Sheet of GGF: 37.8%
  % β-Turn of GGF: 13.3%
GGF [3]; [8]
  % Other of GGF: 41.4%
  % α-Helix of GGF: 7.4%
  % β-Sheet of GGF: 37.9%
  % β-Turn of GGF: 13.3%
GGF [3]; [9]
  % Other of GGF: 41.5%
  % α-Helix of GGF: 7.5%
  % β-Sheet of GGF: 37.7%
  % β-Turn of GGF: 13.3%
